Test results as given in the supplement of paper PMC10338343.
± gives the standard deviation. This is a selection; strong and weak results do not stand in their true shares. Many entries were measured with a wide error. The list shows a part of the results.

Tests used:
[1] = test system: MIWI (PIWIL1) piRISC loaded with L1MC piRNA (30 nt); assay: pre-steady-state target cleavage rate (min^-1); higher = faster piRNA-guided slicing of the target; settings: guide: L1MC piRNA 5'p-UAACUAAAUACUAUGCAAGCUGUAGGUCCU;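 note: 1 nM active piRISC with 0.1 nM target library at 33 °C single turnover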
How it was run: (§1)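 For Cleave-'n-Seq, a transcribed, DNA-blocked target RNA library […] met 1 nM active affinity-purified piRISC with one synthetic guide at 33 °C for 0–8 or 0–960 min in HEPES–potassium acetate buffer, with or without 500 nM GTSF1 partner protein. Uncleaved targets were sequenced and normalised to depth and weakly complementary targets, with three trials pooled and k3 capped at 0.0001 min^-1. A burst-and-steady-state fit supplied the pre-steady-state cleavage rate.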

[2] = test system: EfPiwi piRISC loaded with L1MC piRNA (26 nt); assay: pre-steady-state target cleavage rate (min^-1); guide: L1MC piRNA 5'p-UAACUAAAUACUAUGCAAGCUGUAGG; MIWI and MILI are mouse PIWI proteins and EfPiwi is from a freshwater sponge; tags in brackets are library labels; higher = faster piRNA-guided slicing of the target; settings: auxiliary factor: 500 nM Ephydatia muelleri Gtsf1
How it was run: as §1

[3] = auxiliary factor: 500 nM mouse GTSF1
[4] = auxiliary factor: none (no GTSF1)

Sequence | pre-steady-state target cleavage rate [1, 3] | pre-steady-state target cleavage rate [1, 4] | pre-steady-state target cleavage rate [2]
UCCUGGAUGUCCUUGCUUAGUAUUUUGUUA | 0.00363 ± 0.0053 | 0.00178 ± 0.0041 | 0.000325 ± 0.0098
UCCUGGAUGUCGUUGCUUAGUAUAUAGUUA | 0.00019 ± 0.052 | 0.00062 ± 0.0094 | 0.000288 ± 0.015
UCCUGGAUGUCGAUGCAUAGUAAUUUGUUA | 0.000541 ± 0.019 | 0.000859 ± 0.0077 | 0.000528 ± 0.013
UCCUGGAUCAGCUUGGUUAGUAUUUACAAA | 0.00114 ± 0.01 | 0.00087 ± 0.0052 | 0.000345 ± 0.0097
UCCUGGAUGUCGAUGCAUAGUAUUUAGUA | 0.0012 ± 0.0081 | 0.00194 ± 0.0037 | 0.00117 ± 0.0057
UCCUGCUACAGCUUGGAUAGUAUUUUCAAA | 0.0035 ± 0.0045 | 0.00098 ± 0.0061 | 0.00307 ± 0.0018
UCCUGGAUGUCGAAGCAUAGUAUUUAGGUA | 0.00102 ± 0.01 | 0.00176 ± 0.0043 | 0.000868 ± 0.007
